# Some of the results follow.
# Test system: T1, CTL2-GFP (C. trachomatis L2/434/Bu, GFP-expressing)
# T1 construct: L2/434/Bu, GFP-expressing
# Set-up: species or system HeLa; Intracellular C. trachomatis growth in HeLa cells, bulk GFP fluorescence relative to DMSO
# Settings: bulk GFP, single well; 28.5 h, 10 µM; inhibitor
row,Compound,% of control remaining [%]
1,c1ccc(-c2nc(C3CCNCC3)n3ccncc23)cc1 [CBK035434],153.713
2,Cc1cc(NS(=O)(=O)c2cccc(C(F)(F)F)c2)n(C)n1 [CBK067244],111.074
3,COc1cc(Cl)cc(C2NC(=S)NC(c3ccccc3)=C2C(=O)c2ccccc2)c1OCC(=O)O (stereo not shown) [CBK266332],112.365
4,N#Cc1ccccc1NC(=O)CN1CCCCCC1 [CBK270088],150.758
5,COC(=O)c1ccc(CSc2nnc(-n3sc4ccccc4c3=O)s2)cc1 [CBK116502],102.277
6,Cc1ccc(/C=C(\NC(=O)c2ccccc2)C(=O)N2CCCC2C(=O)O)cc1 (stereo not shown) [CBK265649],100
7,Cc1ccc(C(CC(=O)N2CCN(Cc3ccccc3)CC2)c2ccccc2)c(O)c1C (stereo not shown) [CBK262214],120.583
8,c1ccc(-c2nnc3ccccc3c2NCCCN2CCOCC2)cc1 [CBK066892],118.195
9,CCCC(=O)NC(c1ccc(OC)c(OC)c1)c1c(O)ccc2ccccc12 (stereo not shown) [CBK263269],98.0687
10,Cc1cccc(CN2CCCC[C@H]3CN(C(=O)c4cccs4)C[C@H]32)c1 [CBK285530],103.861
11,CCOc1cc(S(=O)(=O)NCCCN2CCOCC2)ccc1Br [CBK270111],102.527
12,COc1ccc(CN2CCC(O)CC2)c(OC)c1 [CBK261522],101.173
13,O=C(Nc1ccccc1N1CCCNCC1)c1ccc2ccccc2c1 [CBK038927T],6.569
14,Cc1cc2n(n1)[C@@H](C(F)F)C[C@@H](C1CCCN(C(=O)C(C)C)C1)N2 (stereo partly shown) [CBK284722],91.0863
15,Fc1cccc(-c2nc3cnccn3c2NCc2ccco2)c1 [CBK282323],122.522
16,Cc1cc(NC(=O)c2ccc3ccccc3c2)nc2c1c(=O)oc1ccccc12 [CBK291122],101.797
17,O=C1/C(=C/c2ccc(OCc3cccc4ccccc34)cc2)SC(=S)N1Cc1cccnc1 [CBK264669],96.5733
18,O=S(=O)(Nc1ccc2[nH]ccc2c1)c1cccnc1 [CBK156811],149.778
19,CCC(=O)NCCc1c[nH]c2ccc([N+](=O)[O-])cc12 [CBK088059],104.566
20,CC(=O)Oc1ccc(-c2cccc(C(=O)NCCO)c2)cc1 [CBK263829],86.3545
21,CN(C)CCNCc1cccc(OCc2ccccc2)c1 [CBK278216C],135.875
22,COc1ccc(-c2nnc(NC(=O)C3CCCCC3)o2)cc1 [CBK287592],100.162
23,COc1ccc(C2CNC(=O)N2C(=O)OC(C)(C)C)cc1OC1CCCC1 (stereo not shown) [CBK007281],144.694
24,CCn1cc(CN(C)Cc2csc(C)n2)c2cc(C(=O)O)ncc21 [CBK306950],78.4806
25,Cn1c(=O)[nH]c(=O)c2c(-c3ccccc3)ccnc21 [CBK288136],102.642
26,O=C(CCCn1ccnc1)N1CCCC(c2cc3cccnc3[nH]2)C1 (stereo not shown) [CBK284959],115.415
27,CN(C)c1cccc(Nc2ncc(-c3ccc(N4CCOCC4)cc3)n3ccnc23)c1 [CBK091222],107.882

row,Compound,% of control remaining [%]
1,Cc1cc(C(F)F)n2nc(C(=O)NCc3ccccc3F)nc2n1 [CBK266228],149.401
2,COc1ccc(CN2C(=S)N(c3ccc(OC)cc3)[C@H]3[C@@H]2[C@H]2OC(=O)[C@@H]3C[C@H]2O)cc1 [CBK288934],124.733
3,Cc1ccc2oc(-c3ccc(C)c(NC(=O)c4cc([N+](=O)[O-])ccc4Cl)c3)nc2c1 [CBK263055],101.741
4,C=CCNC(=O)N[C@H]1CO[C@H]2[C@@H]1OC[C@H]2OC(=O)Nc1ccccc1 [CBK289466],107.705
5,O=C(/C=C/c1ccco1)NC(=S)Nc1ccc(O)c(-c2nc3ccccc3s2)c1 [CBK264344],116.475
6,CSCCN1CCC(Oc2nccnc2OCC2COc3ccccc3O2)CC1 (stereo not shown) [CBK082996T],118.452
7,Cc1ccc(Cn2nc(NC(=O)c3cccn3C)c3ccccc32)cc1 [CBK048214],112.815
8,O=C(N/N=C/c1ccncc1)C1CC1C(=O)N/N=C/c1ccncc1 (stereo not shown) [CBK261115],94.483
9,CC(C)c1nccn1CC(=O)N(C)C(C)c1ccc(F)c(F)c1 (stereo not shown) [CBK306443],137.199
10,COc1ccccc1-c1ccc(NC(=O)C2(c3cccc(F)c3)CCOCC2)cc1 [CBK285747],132.204
11,O=C(CSCCO)Nc1ccc(Oc2ccccc2)cc1 [CBK269167],124.921
12,[N-]=[N+]=Nc1nc2c(N)ncnc2n1C1CC(O)C(CO)O1 (stereo not shown) [CBK201178],159.896
13,O=C1COCC(=O)N1c1ccc(I)cc1 [CBK086499],161.229
14,CN1CCN(c2nc(-c3ccoc3)cn3ccnc23)CC1 [CBK066645],121.429
15,Cc1ccccc1SCC(C)C(=O)O (stereo not shown) [CBK012292],140.23
16,c1ccc2oc(CN3Cc4nc[nH]c4C[C@H]3c3nc(-c4cnccn4)no3)cc2c1 [CBK288954],109.216
17,Cc1cc(OCC(O)CN(Cc2ccccc2)C(C)(C)C)ccc1[N+](=O)[O-] (stereo not shown) [CBK086757],109.317
18,COC(=O)c1c(NC(=O)C(=O)NCc2cccnc2)sc2c1CCCC2 [CBK269170],143.596
19,CC(=O)NC(CC(=O)N1CCCC(n2cccn2)C1)c1cccs1 (stereo not shown) [CBK305405],86.4523
20,COC1C(O)C(CO)OC1n1cnc2c(=O)[nH]cnc21 (stereo not shown) [CBK201328],138.88
21,Cc1noc(N)c1C1OC(=O)c2ccccc21 (stereo not shown) [CBK022932],91.4687
22,CC(CCCC(C)(C)O)Nc1cc(N2CCN(C)CC2)n2nccc2n1 (stereo not shown) [CBK037103],91.7299
23,COc1ccc(C(C)C)cc1-c1cncc(NCCc2ccccn2)n1 [CBK065325],193.747
24,COc1cc([N+](=O)[O-])ccc1-c1ccc(/C=c2\sc3nc4cc(Br)cnc4n3c2=O)o1 [CBK262579],101.502
25,Cc1cc(C(=O)N2CCN(C(=O)c3cn(Cc4ccc(S(C)(=O)=O)cc4)nn3)CC2)n(C)n1 [CBK160824T],119.654
26,CC1CN(c2ccccc2Br)NC1=O (stereo not shown) [CBK026500],133.053
27,Cc1cc(C)n(CC(C)NC(=O)N2CCC(Oc3cccnc3)C2)n1 (stereo not shown) [CBK305342],129.825

# Of the compounds above, 3 have two or more sulfur atoms.
row,Compound,% of control remaining [%]
5,COC(=O)c1ccc(CSc2nnc(-n3sc4ccccc4c3=O)s2)cc1 [CBK116502],102.277
17,O=C1/C(=C/c2ccc(OCc3cccc4ccccc34)cc2)SC(=S)N1Cc1cccnc1 [CBK264669],96.5733
5,O=C(/C=C/c1ccco1)NC(=S)Nc1ccc(O)c(-c2nc3ccccc3s2)c1 [CBK264344],116.475

# Quoted at random: two records from the list.
row,Compound,% of control remaining [%]
9,CC(C)c1nccn1CC(=O)N(C)C(C)c1ccc(F)c(F)c1 (stereo not shown) [CBK306443],137.199
19,CC(=O)NC(CC(=O)N1CCCC(n2cccn2)C1)c1cccs1 (stereo not shown) [CBK305405],86.4523

# Next part:

row,Compound,% of control remaining [%]
1,COc1cc(C2Nc3ccccc3-c3nc(SC)nnc3O2)ccc1OCC(=O)O (stereo not shown) [CBK262687],100
2,O=C(CN1C(=O)c2ccccc2C1=O)Nc1nc(-c2ccccc2)cs1 [CBK287343],128.728
3,Cc1ccc(S(=O)(=O)Nc2ccnc(-c3ccc(CO)cc3)n2)cc1 [CBK067477],106.959
4,COc1ccc2[nH]c3c(c2c1)CCNC31CCN(Cc2ccccc2)C1 (stereo not shown) [CBK073952C],78.4699
5,O=C(CNS(=O)(=O)c1cc(F)c(Br)cc1F)N1CCOCC1 [CBK042216],105.722
6,CC(=O)c1ccc(-c2cnc3[nH]c(=O)n([C@@H](C)c4ccccc4)c3n2)s1 [CBK064360],159.389
7,Cn1cc(CCNC(=O)NC2CCN(Cc3ccccn3)CC2)cn1 [CBK305297],119.681
8,CC1=C[C@@H](CC#N)[C@H](C(C)C)C[C@H]1CC(=O)Nc1ccccn1 [CBK289215],109.18
9,Cc1nc(SCc2ccccc2)nc(O)c1CC(=O)O [CBK264203],100
10,O=C(NCC(O)c1ccc(O)cc1)c1cnc(-c2ccc(Cl)cc2)c(-c2cccnc2)c1 (stereo not shown) [CBK036656],209.266
11,O=C1c2cccc3cccc(c23)C(=O)N1CCCSc1nnc(-c2ccncc2)n1-c1ccccc1 [CBK268684],136.933
12,CCc1csc(C(=Cc2cccs2)C(N)=O)n1 [CBK001007],122.458
13,Cc1cc(C)n(CC(O)CN(c2ccccc2)S(=O)(=O)c2ccccc2)n1 (stereo not shown) [CBK264469],113.578
14,O=C(Cc1nnn[nH]1)N1CCCC2(CCN(C(=O)c3ccoc3)C2)C1 (stereo not shown) [CBK137077],108.574
15,CCCCOc1ccc(-c2cn(CC(N)=O)cn2)cc1 [CBK009035],92.4245
16,C/C(=N\Nc1nc(-c2ccccc2)cs1)c1ccccc1 [CBK262104],93.4715
17,CCCC(C)N(C)C(=O)CCc1c(C)nc(-c2cccnc2)[nH]c1=O (stereo not shown) [CBK304965],90.5234
18,CN(C)c1ccc(Nc2cc(-c3cccc4ccccc34)ncn2)cc1 [CBK037835],176.854
19,O=S(=O)(NCC1(c2ccccc2)CCCC1)c1cccnc1 [CBK282762],110.207
20,Cc1nc(-c2ccc(NC(=O)C3CC=CCC3C(=O)O)cc2)cs1 (stereo not shown) [CBK299815],131.986
21,COc1cccc(OC)c1OCCNC1CCc2cc(Cl)ccc2C1 (stereo not shown) [CBK013079C],123.091
22,CC1CCCCN1C(=O)CCn1c(C(F)F)cc2cccnc21 (stereo not shown) [CBK285024],128.386
23,N#Cc1c(NC(=O)Cn2cnc3sc(-c4ccccc4)cc3c2=O)sc2c1CCC2 [CBK268053],129.116
24,COc1cc(F)ccc1-c1nc2ncccc2cc1NS(C)(=O)=O [CBK085692],110.355
25,CCNC(=O)N1CC(C)N(CCCC(c2ccc(F)cc2)c2ccc(F)cc2)CC1C (stereo not shown) [CBK024912C],95.5677
